The source of these data is paper PMC12700555.

Sequences of proteins named here, by UniProt entry; tags and fusion partners are left off.
UniProt P51532: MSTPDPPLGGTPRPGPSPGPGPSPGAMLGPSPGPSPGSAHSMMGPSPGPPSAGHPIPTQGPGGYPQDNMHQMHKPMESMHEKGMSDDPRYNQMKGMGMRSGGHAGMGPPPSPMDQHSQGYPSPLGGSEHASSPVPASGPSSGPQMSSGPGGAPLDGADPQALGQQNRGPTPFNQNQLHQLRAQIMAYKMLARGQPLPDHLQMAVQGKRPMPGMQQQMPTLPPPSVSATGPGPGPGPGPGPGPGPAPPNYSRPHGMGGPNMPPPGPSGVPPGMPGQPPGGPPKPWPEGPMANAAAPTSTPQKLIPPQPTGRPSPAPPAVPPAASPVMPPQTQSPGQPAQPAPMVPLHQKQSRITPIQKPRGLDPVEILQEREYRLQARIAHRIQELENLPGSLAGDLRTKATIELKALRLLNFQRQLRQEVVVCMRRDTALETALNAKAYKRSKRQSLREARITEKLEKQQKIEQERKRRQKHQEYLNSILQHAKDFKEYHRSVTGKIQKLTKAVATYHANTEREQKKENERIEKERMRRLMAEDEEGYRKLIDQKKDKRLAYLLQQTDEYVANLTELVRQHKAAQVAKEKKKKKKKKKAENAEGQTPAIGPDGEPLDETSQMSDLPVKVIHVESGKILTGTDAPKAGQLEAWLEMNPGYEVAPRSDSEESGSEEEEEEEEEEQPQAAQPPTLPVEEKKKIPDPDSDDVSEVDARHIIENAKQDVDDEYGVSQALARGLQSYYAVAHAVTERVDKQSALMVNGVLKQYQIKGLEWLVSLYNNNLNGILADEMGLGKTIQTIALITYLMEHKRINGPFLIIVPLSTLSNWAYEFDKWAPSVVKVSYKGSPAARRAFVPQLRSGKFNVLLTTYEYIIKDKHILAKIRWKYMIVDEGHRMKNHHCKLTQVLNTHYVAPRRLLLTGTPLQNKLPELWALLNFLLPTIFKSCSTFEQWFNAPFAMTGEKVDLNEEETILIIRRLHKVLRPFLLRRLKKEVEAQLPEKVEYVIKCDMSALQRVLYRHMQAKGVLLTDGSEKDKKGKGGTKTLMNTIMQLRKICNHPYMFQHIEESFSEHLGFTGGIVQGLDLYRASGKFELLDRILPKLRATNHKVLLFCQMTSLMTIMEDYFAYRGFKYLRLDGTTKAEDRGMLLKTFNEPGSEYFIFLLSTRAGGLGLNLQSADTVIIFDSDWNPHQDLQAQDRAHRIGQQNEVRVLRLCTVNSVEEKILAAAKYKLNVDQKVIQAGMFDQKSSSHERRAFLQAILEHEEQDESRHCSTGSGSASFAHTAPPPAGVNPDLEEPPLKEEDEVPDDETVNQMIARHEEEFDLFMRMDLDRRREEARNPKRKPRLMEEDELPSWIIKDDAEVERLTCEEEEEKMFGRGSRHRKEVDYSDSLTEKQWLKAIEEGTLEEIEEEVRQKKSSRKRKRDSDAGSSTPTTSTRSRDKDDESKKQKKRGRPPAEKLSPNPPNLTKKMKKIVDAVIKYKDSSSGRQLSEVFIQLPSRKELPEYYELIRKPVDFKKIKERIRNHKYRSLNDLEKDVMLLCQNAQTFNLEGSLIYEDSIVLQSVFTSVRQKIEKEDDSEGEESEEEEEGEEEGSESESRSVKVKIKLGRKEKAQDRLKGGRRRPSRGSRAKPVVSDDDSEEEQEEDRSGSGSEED
UniProt O95235: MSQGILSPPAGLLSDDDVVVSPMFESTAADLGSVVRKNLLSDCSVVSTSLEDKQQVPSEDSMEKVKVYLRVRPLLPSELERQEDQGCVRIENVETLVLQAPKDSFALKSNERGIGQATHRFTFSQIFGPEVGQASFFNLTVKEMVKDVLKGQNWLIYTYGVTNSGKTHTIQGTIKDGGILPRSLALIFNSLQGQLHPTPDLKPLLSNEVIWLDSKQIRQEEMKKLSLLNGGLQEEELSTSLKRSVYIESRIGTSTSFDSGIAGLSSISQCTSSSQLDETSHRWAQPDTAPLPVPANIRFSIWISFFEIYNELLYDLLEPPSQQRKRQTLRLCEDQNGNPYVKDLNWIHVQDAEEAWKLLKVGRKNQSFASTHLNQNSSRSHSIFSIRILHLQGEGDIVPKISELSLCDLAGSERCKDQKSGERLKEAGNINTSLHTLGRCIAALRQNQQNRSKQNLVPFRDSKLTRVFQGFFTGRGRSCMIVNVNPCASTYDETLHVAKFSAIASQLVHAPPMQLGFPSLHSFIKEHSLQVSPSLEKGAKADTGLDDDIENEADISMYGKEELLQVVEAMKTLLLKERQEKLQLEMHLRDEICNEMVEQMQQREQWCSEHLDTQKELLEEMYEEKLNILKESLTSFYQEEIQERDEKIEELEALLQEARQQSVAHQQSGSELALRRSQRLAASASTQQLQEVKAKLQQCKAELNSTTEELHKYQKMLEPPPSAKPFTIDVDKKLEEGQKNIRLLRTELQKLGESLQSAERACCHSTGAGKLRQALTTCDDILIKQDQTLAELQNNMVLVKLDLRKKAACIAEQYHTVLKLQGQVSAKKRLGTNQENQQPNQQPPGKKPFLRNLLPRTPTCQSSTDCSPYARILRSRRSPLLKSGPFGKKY

Holding throughout (test): co-IP; whole-cell lysates in RIPA buffer (50 mM Tris-HCl pH 8.0, 150 mM NaCl, 1% NP-40, 1 mM EDTA, 0.5% sodium deoxycholate, 0.1% SDS); HA- or V5-conjugated beads 4 hours at 4°C; 3 washes; Western blotting; MDA-MB-231 or HCC1806 cells
(In general: A western blot detects proteins with antibodies after separation by electrophoresis.)

In experiment [1] the target is V5-tagged SMARCA4 (UniProt P51532).
Experiment [2] has as its target HA-tagged KIF20A (kinesin family member 20A) (UniProt O95235).
For experiment [3], the target named is V5-tagged KIF20A (kinesin family member 20A) (UniProt O95235).

Results are given in words; binding and its absence hold for the method and conditions named. In cells and extracts the contact can be indirect. Some results given as binding are weak or reduced against the parent protein; the word gives no strength.

As for “HA-tagged KIF20A (kinesin family member 20A) (from UniProt O95235 1-890)”, the binding result in experiment [1] is reported as “binds”.

“V5-tagged SMARCA4 (from UniProt P51532 1-1647)”: the binding entry in experiment [2] was “binds”.

Turning to “endogenous SMARCA4 (from UniProt P51532 1-1647)”, the binding entry in experiment [3] was “binds”.
